Measurements reported in PubChem BioAssay AID652243 (Drosophila RNAi Screening Center, 2013).

Aim: 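Knock-downs that decrease or increase androgen receptor reporter signal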 (primary screen)
Cells: Drosophila S2R+ cells
Reagents: long dsRNA against Drosophila genes
Duration: 72 h (48 h, then 24 h hormone)
Conditions: synthetic androgen R1881 at 10 nM for 24 h
Detection: 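Per-well raw luminescence of the androgen-driven firefly reporter and of the Renilla control, two replicates each, without normalisation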
Reading the numbers: firefly reporter light: higher = more light from androgen-responsive reporter; Renilla control light: higher = more constitutive control signal (cell number, transfection)
Hit rule: 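Hit when the log firefly-to-Renilla ratio dropped or increased by a fixed fold versus the mean of GFP or LacZ controls across duplicate plates; lowering cut given as 1.5 and as 3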
Calls: active = hit: reporter lowered or raised; inactive = no hit
The screen tested about 24,000 reagents; below is a random part of those with a known target gene and a result. Over the whole deposit, 246 (1%) are marked active. 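Plates not normalised; calls are printed but the firefly/Renilla ratio behind them is not deposited; fold cut for lowering reported inconsistently.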 The raw values are shown without normalisation. A plus sign joins genes that one reagent is predicted to hit. Reagent sequences are not shown. Not stated in the record: the amount of reagent.

target | dsRNA | firefly reporter light, replicate 1 | firefly reporter light, replicate 2 | Renilla control light, replicate 1 | Renilla control light, replicate 2 | activity call
Rilpl (GeneID 31090) | DRSC18494 | 1.31e5 | 1.22e5 | 1.19e6 | 8.87e5 | inactive
CG12784 (GeneID 41903) | DRSC14539 | 1.73e5 | 1.84e5 | 2.14e6 | 2.64e6 | inactive
asRNA:CR42743 + CG34162 | DRSC01190 | 7.85e5 | 7.53e5 | 1.51e6 | 9.83e5 | inactive
Elo68alpha (GeneID 317841) | DRSC22725 | 8.81e5 | 7.42e5 | 2.06e6 | 1.95e6 | inactive
Mtr4 (GeneID 48782) | DRSC03560 | 4.44e5 | 5.71e5 | 6.33e5 | 1.47e6 | inactive
CG3739 (GeneID 42320) | DRSC15510 | 2.17e5 | 2.89e5 | 2.62e6 | 3.14e6 | inactive
CG31345 (GeneID 41576) | DRSC14193 | 52438 | 63927 | 8.73e5 | 1.20e6 | inactive
CG31345 (GeneID 41576) | DRSC14847 | 1.26e5 | 1.06e5 | 2.06e6 | 1.46e6 | inactive
CG14204 (GeneID 32950) | DRSC19559 | 88869 | 86215 | 2.43e5 | 2.01e5 | inactive
CG14204 (GeneID 32950) | DRSC29941 | 3.91e5 | 3.97e5 | 1.05e6 | 1.10e6 | inactive
CR42545 (GeneID 8674105) | DRSC03709 | 2.84e5 | 2.96e5 | 1.53e6 | 2.40e6 | inactive
Sry-beta (GeneID 43570) | DRSC16868 | 77186 | 90909 | 3.41e5 | 2.99e5 | inactive
Sry-beta (GeneID 43570) | DRSC24321 | 1.46e5 | 1.73e5 | 3.04e5 | 1.79e5 | inactive
gd (GeneID 32159) | DRSC20336 | 4.10e5 | 4.21e5 | 2.75e6 | 3.15e6 | inactive
CG14913 (GeneID 34532) | DRSC02397 | 1.52e5 | 2.02e5 | 1.39e6 | 1.60e6 | inactive
CG14913 (GeneID 34532) | DRSC27967 | 8.75e5 | 6.50e5 | 1.87e6 | 1.36e6 | inactive
CR40282 (GeneID 12798062) | DRSC07814 | 57393 | 96932 | 7.68e5 | 9.72e5 | inactive
CG41320 (retired record) + l(3)80Fg | DRSC38582 | 7.19e5 | 3.78e5 | 1.27e6 | 8.08e5 | inactive
mRpL49 (GeneID 32242) | DRSC19908 | 5.55e5 | 5.36e5 | 3.66e6 | 3.97e6 | inactive
Ser6 (GeneID 33073) | DRSC20574 | 3.20e5 | 1.60e5 | 7.70e5 | 5.38e5 | inactive
Ser6 (GeneID 33073) | DRSC27628 | 3.26e5 | 3.25e5 | 6.66e5 | 7.70e5 | inactive
CG42402 (GeneID 7354470) | DRSC38595 | 8.88e5 | 6.81e5 | 2.02e6 | 1.28e6 | inactive
CG42402 (GeneID 7354470) | DRSC38764 | 1.29e6 | 9.65e5 | 2.20e6 | 1.71e6 | inactive
l(2)k09913 (GeneID 37661) | DRSC04699 | 4.26e5 | 3.71e5 | 1.36e6 | 1.20e6 | inactive
CG12398 (GeneID 32422) | DRSC19454 | 2.77e5 | 2.92e5 | 2.30e6 | 2.41e6 | inactive
CG8209 (GeneID 38888) | DRSC10970 | 3.34e5 | 2.19e5 | 4.41e6 | 2.77e6 | inactive
CG8209 (GeneID 38888) | DRSC28217 | 8.92e5 | 1.20e6 | 1.32e6 | 1.80e6 | inactive
Or33b (GeneID 34602) | DRSC03387 | 2.57e5 | 3.29e5 | 1.24e6 | 1.41e6 | inactive
Cox11 (GeneID 33776) | DRSC22692 | 6.32e5 | 6.02e5 | 1.93e6 | 1.99e6 | inactive
Acp1 (GeneID 34052) | DRSC01854 | 2.09e5 | 1.52e5 | 1.93e6 | 1.50e6 | inactive
CtsL1 (GeneID 36546) | DRSC05462 | 1.63e5 | 1.51e5 | 2.37e5 | 3.19e5 | inactive
CtsL1 (GeneID 36546) | DRSC07363 | 1.32e6 | 1.38e6 | 2.50e6 | 2.33e6 | inactive
CtsL1 (GeneID 36546) | DRSC29071 | 9.06e5 | 7.34e5 | 1.68e6 | 1.38e6 | inactive
CG32523 (GeneID 318071) | DRSC20510 | 2.02e5 | 1.50e5 | 5.88e5 | 5.23e5 | inactive
CG1523 (GeneID 43400) | DRSC15033 | 1.46e5 | 60079 | 7.79e5 | 5.52e5 | inactive
CG1523 (GeneID 43400) | DRSC26315 | 3.61e5 | 2.62e5 | 8.09e5 | 6.75e5 | inactive
CG13324 (GeneID 36434) | DRSC06361 | 3.64e5 | 2.81e5 | 1.07e6 | 1.57e6 | inactive
CR32733 (GeneID 12797943) | DRSC17481 | 3.34e5 | 3.29e5 | 6.61e5 | 5.41e5 | inactive
CR32733 (GeneID 12797943) | DRSC28689 | 2.69e5 | 2.96e5 | 1.42e6 | 1.60e6 | inactive
CG8180 (GeneID 36713) | DRSC07092 | 1.16e6 | 1.46e6 | 1.89e6 | 2.20e6 | inactive
CG8180 (GeneID 36713) | DRSC07093 | 31230 | 14606 | 8.17e5 | 8.17e5 | inactive
CG7453 (GeneID 32903) | DRSC20046 | 1.19e5 | 93475 | 4.04e5 | 3.24e5 | inactive
CG7453 (GeneID 32903) | DRSC24580 | 7.64e5 | 6.85e5 | 1.25e6 | 1.05e6 | inactive
CG32551 (GeneID 318085) | DRSC19259 | 5.90e5 | 7.18e5 | 4.01e5 | 3.62e5 | inactive
Ae2 (GeneID 39147) | DRSC08997 | 1.40e5 | 2.06e5 | 1.72e6 | 2.90e6 | active
Ae2 (GeneID 39147) | DRSC10969 | 9.25e5 | 9.00e5 | 1.10e6 | 1.41e6 | inactive
lncRNA:noe (GeneID 43918) | DRSC22747 | 4.26e5 | 6.70e5 | 9.30e5 | 1.01e6 | inactive
lncRNA:noe (GeneID 43918) | DRSC24139 | 4.10e5 | 4.37e5 | 3.77e5 | 3.21e5 | inactive
NimB2 (GeneID 260645) | DRSC22645 | 8.61e5 | 6.24e5 | 2.02e6 | 1.87e6 | inactive
Ag5r2 (GeneID 44079) | DRSC19328 | 4.65e5 | 4.00e5 | 3.75e6 | 3.57e6 | inactive
GstT3 (GeneID 33047) | DRSC20541 | 2.63e5 | 2.12e5 | 8.99e5 | 5.38e5 | inactive
CG3857 (GeneID 2768908) | DRSC18542 | 1.48e5 | 1.33e5 | 9.76e5 | 5.71e5 | inactive
FucTB (GeneID 34260) | DRSC02745 | 1.46e5 | 1.75e5 | 1.23e6 | 1.14e6 | inactive
CG34163 (GeneID 5740407) | DRSC38917 | 9.56e5 | 8.02e5 | 1.87e6 | 1.25e6 | inactive
CG13000 (GeneID 32685) | DRSC19519 | 2.92e5 | 2.70e5 | 2.05e6 | 1.38e6 | inactive
CG13000 (GeneID 32685) | DRSC25279 | 1.77e6 | 1.38e6 | 1.45e6 | 1.14e6 | inactive
Shawl (GeneID 5740840) | DRSC02209 | 1.77e5 | 1.79e5 | 1.66e6 | 1.51e6 | inactive
Shawl (GeneID 5740840) | DRSC02748 | 3.70e5 | 2.39e5 | 2.88e6 | 1.79e6 | inactive
Shawl (GeneID 5740840) | DRSC24307 | 6.86e5 | 7.54e5 | 1.26e6 | 1.21e6 | inactive

Not a retest: an excerpt of the list.
target | dsRNA | firefly reporter light, replicate 1 | firefly reporter light, replicate 2 | Renilla control light, replicate 1 | Renilla control light, replicate 2 | activity call
Ser6 (GeneID 33073) | DRSC27628 | 3.26e5 | 3.25e5 | 6.66e5 | 7.70e5 | inactive
CG42402 (GeneID 7354470) | DRSC38595 | 8.88e5 | 6.81e5 | 2.02e6 | 1.28e6 | inactive
CG42402 (GeneID 7354470) | DRSC38764 | 1.29e6 | 9.65e5 | 2.20e6 | 1.71e6 | inactive
l(2)k09913 (GeneID 37661) | DRSC04699 | 4.26e5 | 3.71e5 | 1.36e6 | 1.20e6 | inactive
CG12398 (GeneID 32422) | DRSC19454 | 2.77e5 | 2.92e5 | 2.30e6 | 2.41e6 | inactive
CG8209 (GeneID 38888) | DRSC10970 | 3.34e5 | 2.19e5 | 4.41e6 | 2.77e6 | inactive
CG8209 (GeneID 38888) | DRSC28217 | 8.92e5 | 1.20e6 | 1.32e6 | 1.80e6 | inactive
Or33b (GeneID 34602) | DRSC03387 | 2.57e5 | 3.29e5 | 1.24e6 | 1.41e6 | inactive
